Earlier results in patent US7329690B2, “Effectiveness of invertebrate pest-control agents” (FMC Corporation, priority 2001, dated 2008).
Some of these results come from one statement about several compounds together.

Question: With `Cc1c(COC(=O)[C@@H]2[C@H](/C=C(\Cl)C(F)(F)F)C2(C)C)cccc1-c1ccccc1` (racemic) [bifenthrin] as the molecule, how does the water solubility read?
Answer: ≤ 3 ppm
